Measured values: publication PMC8437979
These are yes or no findings as the source states them, for the method shown. In cells and extracts the contact can be indirect. Binding calls can cover weak binding; strength is not graded here.

By UniProt entry, the sequences of proteins in these tests, tags left out. Where a name states a change or a piece, a line headed by the entry shows the natural chain unless it says otherwise.
UniProt Q99942: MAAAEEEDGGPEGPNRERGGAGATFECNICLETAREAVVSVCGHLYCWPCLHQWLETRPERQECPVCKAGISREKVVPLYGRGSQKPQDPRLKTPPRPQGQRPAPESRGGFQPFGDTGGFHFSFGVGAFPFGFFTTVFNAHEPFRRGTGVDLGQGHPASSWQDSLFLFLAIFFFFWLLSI
UniProt Q09028: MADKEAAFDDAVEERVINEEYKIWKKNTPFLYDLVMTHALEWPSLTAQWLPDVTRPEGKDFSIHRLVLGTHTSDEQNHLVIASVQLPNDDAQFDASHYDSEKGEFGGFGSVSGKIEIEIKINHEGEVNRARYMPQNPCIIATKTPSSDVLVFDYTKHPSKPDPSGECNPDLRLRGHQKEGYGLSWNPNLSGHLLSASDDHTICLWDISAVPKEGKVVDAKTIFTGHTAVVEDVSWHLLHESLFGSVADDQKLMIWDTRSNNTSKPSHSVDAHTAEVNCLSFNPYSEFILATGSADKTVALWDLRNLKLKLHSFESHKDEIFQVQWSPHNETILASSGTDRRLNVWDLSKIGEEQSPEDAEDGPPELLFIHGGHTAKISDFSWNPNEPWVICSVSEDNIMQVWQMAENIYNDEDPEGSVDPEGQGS

Biological target: Flag-tagged RNF5 catalytically inactive RING domain mutant (RM) (UniProt Q99942)
Test: co-IP; HEK293T cells transfected with Flag-tagged RNF5 WT, RM or ∆CT; endogenous RBBP4 detected by western blot; MG132 (10 µm, 4 h) before lysis; TBS-lysis buffer (50 mM Tris-HCl pH 7.5, 150 mM NaCl, 0.5% Nonidet P-40), protein A/G agarose

binding: binds
Substance: Endogenous RBBP4 (retinoblastoma binding protein 4) of HEK293T cells (from UniProt Q09028 1-425)
